# No constants are given. Whether binding was seen depends on the method and setting. In cells and extracts the contact can be indirect. Binding calls can cover weak binding; strength is not graded here.
# The chains behind the UniProt entries cited, without tags or fusion partners. Where a name states a change or a piece, a line headed by the entry shows the natural chain unless it says otherwise.
# UniProt Q9Y4L5: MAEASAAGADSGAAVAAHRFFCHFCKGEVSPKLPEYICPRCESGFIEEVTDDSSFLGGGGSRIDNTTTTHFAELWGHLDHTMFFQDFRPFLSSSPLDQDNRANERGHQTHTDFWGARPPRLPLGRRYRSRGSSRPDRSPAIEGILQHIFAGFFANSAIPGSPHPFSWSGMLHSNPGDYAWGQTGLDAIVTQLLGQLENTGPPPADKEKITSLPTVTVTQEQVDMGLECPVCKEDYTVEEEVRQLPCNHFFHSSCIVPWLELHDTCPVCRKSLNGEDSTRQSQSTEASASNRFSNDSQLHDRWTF
# UniProt Q10589: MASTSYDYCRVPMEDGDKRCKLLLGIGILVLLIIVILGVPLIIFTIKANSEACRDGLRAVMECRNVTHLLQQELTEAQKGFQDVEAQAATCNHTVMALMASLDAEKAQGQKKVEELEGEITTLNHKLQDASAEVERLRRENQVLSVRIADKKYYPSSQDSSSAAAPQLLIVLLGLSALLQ
# How the values were obtained:
# [1] = target: GST-BCA2 (recombinant GST-tagged BCA2) (human) (UniProt Q9Y4L5); test: pull-down; glutathione beads coupled with purified GST-BCA2 incubated with lysates of 293T cells expressing Myc-tetherin (FL or Δ1–20); immunoblot with Myc antibody; only the target purified
# [2] = target: N-terminal HA-tagged BCA2 (human) (UniProt Q9Y4L5); test: co-IP; 293T cells co-expressing Myc-tetherin (FL or Δ1–20) and HA-BCA2 (FL or deletion mutants); lysates incubated with anti-HA affinity gel; immunoblot with HA or Myc antibodies
substance,measurement,setting,value
Myc-tetherinΔ1–20 (deletion mutant devoid of the cytoplasmic tail domain) (from UniProt Q10589) (domain or fragment),binding,[1],binds
same,binding,[2],binds

# Source: publication PMC2788703
